Measured values: PubChem BioAssay AID662 (National Center for Advancing Translational Sciences (NCATS), 2007)
Where “and” joins values, the source holds several entries; their conditions need not be identical. Equal values may be shown once. The list shows a part of the results. Further columns of the screen follow, without active or inactive calls. The list favours compounds with an active or inconclusive main result. Words in brackets tell the shape of the fitted curve; partial curves, single points and poor fits give uncertain potencies.

Test: Cell signaling CRE-BLA (Fsk stim)
Details: CHO CRE-bla reporter (cAMP response element driving beta-lactamase), forskolin EC10, beta-lactamase ratio; measured here: 460 nm blue channel
Procedure, shortened: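 Beta-lactamase reporter under a cAMP responsive element in CHO cells; compounds tested in titration series against EC10 NKH 477, 3 h at 37 °C. Read-out: CCF4 FRET ratio 460nm/530nm (excitation 405nm) giving %Activity, fitted to AC50.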

SMILES	AC50
Cc1nc(SCC(=O)NCC2CCCO2)c2oc3ccccc3c2n1 (stereo unspecified)	12.6 µM [rising, partial curve]
Cc1ccc(S(=O)(=O)N[C@H](CO)C(=O)O)cc1	0.398 µM [rising, single point]
CN(C)c1ccc(-c2cc(Nc3ccc(F)cc3)ncn2)cc1	10 µM [rising, partial curve]
Cc1cccn2c(=O)c3cc(C#N)c(=NC(=O)c4cccnc4)n(CC4CCCO4)c3nc12 (stereo unspecified)	12.6 µM [rising, partial curve]
Cn1c(=O)c(-c2ccc(F)c(F)c2)nc2cncnc21	12.6 µM [rising, partial curve]
C[n+]1cc2c3c(ccc2c2ccc4cc5c(cc4c21)OCO5)OCO3	3.98 µM [rising, full curve] and 7.94 µM [falling, partial curve]
CC1CCN(C(=O)CSc2nc(N)c3c4c(sc3n2)CN(C)CC4)CC1	5.01 µM [falling, single point]
Cc1ccc(S(=O)(=O)C(C#N)c2nc3ccccc3nc2N2CCCC2)cc1C (stereo unspecified)	10 µM [rising, partial curve]
COc1ccc(C(=O)CSc2nc3nc(C)cc(C)c3c(=O)[nH]2)cc1OC	3.16 µM [rising, full curve]
COCCNC(=O)CS(=O)Cc1nc(-c2ccc(Cl)cc2)oc1C (stereo unspecified)	12.6 µM [rising, single point]
C=CCn1c(SCC(=O)Nc2cc3oc4ccccc4c3cc2OC)nnc1-c1cnccn1	5.01 µM [rising, partial curve]
CCC(C)NC(=O)c1cn(C)c(=O)c2cc(OC)c(OC)cc12 (stereo unspecified)	3.98 µM [rising, partial curve]
O=C(Nc1ccn(Cc2ccc(Cl)cc2)n1)c1ccc2c(c1)OCO2	0.00316 µM [falling, full curve, poor fit]
Nc1ccc(-c2n[nH]c(=O)c3ccccc23)cc1N	1.58 µM [rising, full curve]
CCOC(=O)c1c(C)[nH]c(C(=O)CN2CC(C)OC(C)C2)c1C (stereo unspecified)	6.31 µM [rising, partial curve]
CCCn1c(=N)c(C(=O)NCC2CCCO2)cc2c(=O)n3cccc(C)c3nc21 (stereo unspecified)	15.8 µM [rising, partial curve]
COC(=O)c1[nH]c2cccc(OC)c2c1NC(=O)CN1CCC(C(N)=O)(N2CCCCC2)CC1	5.01 µM [falling, single point]
C[C@@H](C(=O)NCCc1c[nH]c2ccccc12)[C@H]1C[C@]1(C)[C@H](NC(=O)OCc1ccccc1)c1ccccc1	5.01 µM [falling, partial curve]
CCOC(=O)C1=C(C)N(C)C(C)=C(C(=O)OCC)C1c1cccnc1	12.6 µM [rising, partial curve]
O=C(C1CCN(S(=O)(=O)c2cccc3nsnc23)CC1)N1CCn2c1nc1ccccc12	0.398 µM [rising, partial curve, poor fit]
N#Cc1cc(Cl)c(N2CCOCC2)cc1C#N	10 µM [rising, single point]
O=c1c(-c2cc(F)cc(F)c2)nc2cnc(Oc3ccccc3)nc2n1C1CC1	7.94 µM [rising, partial curve]

A portion of the results above, for reference:
SMILES	AC50
Cc1nc(SCC(=O)NCC2CCCO2)c2oc3ccccc3c2n1 (stereo unspecified)	12.6 µM [rising, partial curve]
Cc1ccc(S(=O)(=O)N[C@H](CO)C(=O)O)cc1	0.398 µM [rising, single point]
CN(C)c1ccc(-c2cc(Nc3ccc(F)cc3)ncn2)cc1	10 µM [rising, partial curve]
Cc1cccn2c(=O)c3cc(C#N)c(=NC(=O)c4cccnc4)n(CC4CCCO4)c3nc12 (stereo unspecified)	12.6 µM [rising, partial curve]
Cn1c(=O)c(-c2ccc(F)c(F)c2)nc2cncnc21	12.6 µM [rising, partial curve]
C[n+]1cc2c3c(ccc2c2ccc4cc5c(cc4c21)OCO5)OCO3	3.98 µM [rising, full curve] and 7.94 µM [falling, partial curve]
CC1CCN(C(=O)CSc2nc(N)c3c4c(sc3n2)CN(C)CC4)CC1	5.01 µM [falling, single point]
Cc1ccc(S(=O)(=O)C(C#N)c2nc3ccccc3nc2N2CCCC2)cc1C (stereo unspecified)	10 µM [rising, partial curve]
COc1ccc(C(=O)CSc2nc3nc(C)cc(C)c3c(=O)[nH]2)cc1OC	3.16 µM [rising, full curve]
COCCNC(=O)CS(=O)Cc1nc(-c2ccc(Cl)cc2)oc1C (stereo unspecified)	12.6 µM [rising, single point]
C=CCn1c(SCC(=O)Nc2cc3oc4ccccc4c3cc2OC)nnc1-c1cnccn1	5.01 µM [rising, partial curve]
CCC(C)NC(=O)c1cn(C)c(=O)c2cc(OC)c(OC)cc12 (stereo unspecified)	3.98 µM [rising, partial curve]
O=C(Nc1ccn(Cc2ccc(Cl)cc2)n1)c1ccc2c(c1)OCO2	0.00316 µM [falling, full curve, poor fit]
Nc1ccc(-c2n[nH]c(=O)c3ccccc23)cc1N	1.58 µM [rising, full curve]
CCOC(=O)c1c(C)[nH]c(C(=O)CN2CC(C)OC(C)C2)c1C (stereo unspecified)	6.31 µM [rising, partial curve]
CCCn1c(=N)c(C(=O)NCC2CCCO2)cc2c(=O)n3cccc(C)c3nc21 (stereo unspecified)	15.8 µM [rising, partial curve]
COC(=O)c1[nH]c2cccc(OC)c2c1NC(=O)CN1CCC(C(N)=O)(N2CCCCC2)CC1	5.01 µM [falling, single point]
C[C@@H](C(=O)NCCc1c[nH]c2ccccc12)[C@H]1C[C@]1(C)[C@H](NC(=O)OCc1ccccc1)c1ccccc1	5.01 µM [falling, partial curve]
CCOC(=O)C1=C(C)N(C)C(C)=C(C(=O)OCC)C1c1cccnc1	12.6 µM [rising, partial curve]

Next records:

SMILES	AC50
CCOC(=O)c1[nH]c2ccc(OC)cc2c1NC(=O)N1CCOCC1	5.01 µM [falling, single point]
Cc1c(C(=O)Nc2ccc(F)cc2)oc2ccc(S(=O)(=O)N3CCCC3)cc12	3.98 µM [rising, single point]
Cc1ccc2nc(N3CCOCC3)c3nncn3c2c1	10 µM [rising, partial curve]
Cn1cc(-c2nc3cncnc3n(Cc3ccccc3Cl)c2=O)c2ccccc21	2 µM [rising, partial curve]
C=CCOC(=O)COc1ccc2c(C)c(C)c(=O)oc2c1	25.1 µM [rising, single point]
N#Cc1ccc(OCC(=O)N2CCN(S(=O)(=O)c3cccs3)CC2)cc1	2.51 µM [rising, single point]
N/C(=N\c1nc2ccccc2o1)NC(=O)C(Cc1ccccc1)N1C(=O)c2ccccc2C1=O (stereo unspecified)	12.6 µM [falling, partial curve]
Cc1cc(C)c2cc(C#N)c(NCCCNC(=O)CCC(=O)O)nc2c1	3.98 µM [falling, single point]
CCn1c(=O)c(C(=O)NCc2ccc(OC)cc2)c(O)c2ccccc21	1.58 µM [rising, partial curve]
CCOC(=O)N1CCN(C(=O)c2ccc(CNS(=O)(=O)c3ccc(C)cc3)cc2)CC1	25.1 µM [falling, single point]
CCOc1ccc2[nH]c(=O)c(CN(CC3CCCN3CC)C(=O)NCc3ccccc3)cc2c1 (stereo unspecified)	3.16 µM [rising, single point]
O=C(NCc1cccs1)C1CCCN(S(=O)(=O)c2cccs2)C1 (stereo unspecified)	0.158 µM [falling, full curve]
COC(=O)c1cc(Br)c(=O)n(CCN2CCOCC2)c1	25.1 µM [rising, single point]
COc1cccc(Nc2ncc3nc(-c4ccc(F)cc4)c(=O)n(C)c3n2)c1	2.51 µM [rising, full curve]
O=C(CCC1COc2ccccc2O1)Nc1ccccn1 (stereo unspecified)	10 µM [rising, partial curve]
COc1ccc(CCNS(=O)(=O)c2cccc3nsnc23)cc1OC	25.1 µM [rising, single point]
COc1ccc(-n2c(=O)c(-c3cccs3)nc3cnc(N4CCOCC4)nc32)cc1	5.01 µM [rising, partial curve]
COc1ccc(OC)c(-c2cc(C(=O)N3CCN(c4ncccn4)CC3)c3ccccc3n2)c1	10 µM [rising, single point]
Cc1cnc(NC(=O)CCCSc2nc3ccccc3s2)s1	7.94 µM [rising, partial curve, poor fit]
O=C(CCCc1nc2ccccc2s1)N1CCN(S(=O)(=O)c2cccs2)CC1	10 µM [rising, single point]
COc1ncc2nc(-c3cccs3)c(=O)n(-c3ccccc3)c2n1	5.01 µM [rising, partial curve]
COc1ccc(C(=O)NCCSCc2ccco2)cc1OC	0.00316 µM [falling, full curve, poor fit]

SMILES	AC50
COc1cccc(C(CC(=O)NCc2ccco2)NS(=O)(=O)c2ccc(C)cc2)c1OC (stereo unspecified)	3.98 µM [falling, partial curve]
COc1ccc2nc(SCC(=O)N3CCCCCC3)c(C#N)cc2c1	10 µM [rising, single point]
O=C(NCC1COc2ccccc2O1)c1c[nH]c2ccc(S(=O)(=O)N3CCOCC3)cc2c1=O (stereo unspecified)	3.16 µM [rising, single point]
O=C(Nc1ccc2c(c1)OCO2)C1CCCN(S(=O)(=O)Cc2ccccc2)C1 (stereo unspecified)	20 µM [falling, single point]
COc1cc(C(=O)OCC(=O)N(C)Cc2ccccc2)cc(OC)c1OC	3.98 µM [rising, single point]
CCCSc1nc2c(cnn2-c2ccc(Cl)cc2)c(=O)[nH]1	0.00794 µM [falling, full curve, poor fit]
Brc1ccccc1-c1nnc(COc2ncnc3c2cnn3-c2ccccc2)o1	12.6 µM [rising, single point]
N#Cc1ccc(COc2ccc(CCO)cc2-n2nc3ccccc3n2)cc1	7.94 µM [rising, partial curve]
c1ccc2c(-c3nc4ncccc4o3)cccc2c1	25.1 µM [rising, single point]
Cc1cc(NC2C3CC4CC(C3)CC2C4)n2ncnc2n1 (stereo unspecified)	3.98 µM [rising, full curve]
Cc1c(C2CCN(CCc3ccccc3)CC2)noc1-c1ccc(Cl)cc1	12.6 µM [falling, partial curve, poor fit]
Cc1ccc(CNC(=O)[C@H](C)[C@H]2C[C@]2(C)[C@H](NC(=O)OCc2ccccc2)c2ccccc2)o1	12.6 µM [falling, single point]
CCN1C(=O)C(O)(C2COC(C)(C)CC2=O)c2cc(Br)ccc21 (stereo unspecified)	12.6 µM [rising, single point]
CCOC(=O)N1CCC(N2CCN(c3cc(C)ccc3C)CC2)CC1	0.00316 µM [falling, full curve, poor fit]
CCCCOc1ccc(-c2nc(-c3cccnc3)no2)cc1	0.316 µM [falling, partial curve]
Cc1sc2nc(C(C)Nc3ccccc3N3CCOCC3)[nH]c(=O)c2c1C (stereo unspecified)	7.94 µM [rising, partial curve]
Cn1c(SCc2ccccc2)nnc1-c1ccncc1	25.1 µM [falling, single point]
CCOC(=O)c1c(CC(C)C)csc1NC=O	10 µM [rising, partial curve]
Cn1cc(C(=O)c2ccccc2)cc1-c1nc2ccccc2n1C	12.6 µM [rising, partial curve]
COc1cc(-c2nnc3sc(-c4cccs4)nn23)cc(OC)c1OC	3.16 µM [rising, partial curve]
C=CCn1cc(C(=O)NCc2ccco2)c(=O)c2cc(S(=O)(=O)N3CCCCCC3)ccc21	2.51 µM [rising, partial curve]
CCc1c(C(=O)NCCc2ccc(OC)c(OC)c2)[nH]c(C)c1C(C)=O	6.31 µM [rising, partial curve]
